Experimental findings from patent publication US20060111335A1, “Photoactivated anti-viral and anti-cancer agent” (priority 2002, published 2006) are described below.

The data set deals with Calf thymus DNA. The experiment in a line: Dark association with DNA, UV-Visible titration (Example XI). The data set is classed as binding. The conditions noted are these: for Aobserved / [DNA]/Δεapp / Δεapp = εf − εapp / εapp: pH 7, I=0.15.
Where [1] appears, read: 344 nm, [DNA] 0, [BISTAP] 2.48E−5.
[2] abbreviates: 344 nm, [DNA] 1.30E−4, [BISTAP] 2.33E−5.
Setting [3] is: 344 nm, [DNA] 1.70E−4, [BISTAP] 2.28E−5.
Setting [4] is: 344 nm, [DNA] 2.09E−4, [BISTAP] 2.24E−5.
Setting [5] is: 344 nm, [DNA] 2.81E−4, [BISTAP] 2.15E−5.
[6] abbreviates: 344 nm, [DNA] 3.16E−4, [BISTAP] 2.11E−5.
The mark [7] stands for this setting: 344 nm, [DNA] 4.53E−5, [BISTAP] 2.43E−5.

Regarding `[Cl-].[Cl][Rh+]12([Cl])([N]3C=CC=c4c3c3c(c5nccnc45)=CC=C[N]31)[N]1C=CC=c3c1c1c(c4nccnc34)=CC=C[N]12`, the Aobserved reads like this: under setting [1], 0.2340; under setting [2], 0.2146; under setting [3], 0.2109; under setting [4], 0.2066; under setting [5], 0.1976; under setting [6], 0.1940. The same compound displayed an Aobserved under setting [7] of 0.2265. The “[DNA]/Δεapp” value reads like this: under setting [1], 0; under setting [2], 5.78E−7; under setting [3], 9.19E−7; under setting [4], 9.86E−7; under setting [5], 1.152E−6; under setting [6], 1.311E−6. The “[DNA]/Δεapp” value under setting [7] was 3.97E−7. The “Δεapp = εf − εapp” value reads like this: under setting [1], 0; under setting [2], 225; under setting [3], 185; under setting [4], 212; under setting [5], 244; under setting [6], 241. Further, the “Δεapp = εf − εapp” value under setting [7] is reported as 114. The εapp was 9435 under setting [1]; 9210 under setting [2]; 9250 under setting [3]; 9223 under setting [4]; 9191 under setting [5]; 9194 under setting [6]. Besides, the εapp under setting [7] is 9321. For the same compound, the “Δε = εf − εb” value (from slope of [DNA]/Δεapp versus [DNA]) stood at 294. Besides, for the setting “εb = εf − Δε”, the “εb, extinction coefficient of the DNA-bound form” value is on record as 9141.

Take `CC1=C[N]2c3c4c(ccc3=C1C)=C(C)C(C)=C[N]4[Rh+]21([Cl])([Cl])[N]2C=C(C)C(C)=c3ccc4c(c32)[N]1C=C(C)C=4C.[Cl-]` [OCTBP, cis-dichlorobis(3,4,7,8-tetramethyl-1,10-phenanthroline) rhodium(III) chloride]: the “[DNA]/Δεapp” value (337 nm, [DNA] 0, [OCTBP] 2.26E−5) is given as 0; the “[DNA]/Δεapp” value (337 nm, [DNA] 1.30E−4, [OCTBP] 2.12E−5) turned out to be 4.333E−7; the “[DNA]/Δεapp” value (337 nm, [DNA] 1.70E−4, [OCTBP] 2.08E−5) amounted to 4.913E−7; the “[DNA]/Δεapp” value (337 nm, [DNA] 2.46E−4, [OCTBP] 2.00E−5) was determined as 6.276E−7; the “[DNA]/Δεapp” value (337 nm, [DNA] 2.81E−4, [OCTBP] 1.96E−5) was found to be 7.187E−7; the “[DNA]/Δεapp” value (337 nm, [DNA] 3.80E−4, [OCTBP] 1.86E−5) was determined as 7.661E−7. For the same compound, the “[DNA]/Δεapp” value (337 nm, [DNA] 4.53E−5, [OCTBP] 2.21E−5) is listed as 3.624E−7.
